{
  "source": "PubChem BioAssay AID504834",
  "about": "(National Center for Advancing Translational Sciences (NCATS), 2011)",
  "note": "Hit rate of the full screen: of about 320,000 compounds, about 22,000 (6.9%) were called active. The shares of active, inactive and inconclusive entries below differ from those in the screen. Calls follow the shape of the dose curve; as a rule, active = well fitted inhibition curve with a large enough effect; inconclusive = small, poorly fitted or top-dose-only effect, or another doubt; inactive = no such curve, though single readings can be large or run the other way. Potencies beside an inconclusive call are fits to weak or partial responses and may not hold up. Potency is read from the fitted curve at half-maximal effect.",
  "data": [
    {"test": "Primary qHTS for delayed death inhibitors of the malarial parasite plastid, 96 hour incubation", "settings": "P. falciparum luciferase reporter growth; series mostly up to 28.7 µM", "procedure,_shortened": "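Parasite growth measured via integrated firefly luciferase reporter in P. falciparum. Infected erythrocytes at 2% hematocrit, 0.05% parasitemia final were treated 96 hours at 37 C under 5% CO2, and luminescence was read.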", "values": [
      {"smiles": "Cc1oc2c(CN3CCCCC3)c(O)ccc2c(=O)c1-c1ccc(Br)cc1", "Potency": "active: 1.17 µM"},
      {"smiles": "CC(=O)N=Nc1[nH]c(N)c2ccccc12", "Potency": "inactive"},
      {"smiles": "O=C(N/N=C/c1ccc(O)cc1O)c1ccc(CN2C(=O)c3cccc4cccc2c34)cc1", "Potency": "inconclusive: 18.5 µM [inhibitor, single point]"},
      {"smiles": "Nc1cc(C(=O)c2ccccc2)ccc1[N+](=O)[O-]", "Potency": "inactive"},
      {"smiles": "CCCN1CCN(CCCNC(=O)c2ccc(CS(=O)c3ccc(OC)cc3)o2)CC1", "note": "(centres undefined)", "Potency": "inconclusive: 4.15 µM [inhibitor, single point]"},
      {"smiles": "O=C1c2oc3ccccc3c(=O)c2C(c2cccs2)N1CCCN1CCOCC1", "note": "(centres undefined)", "Potency": "inconclusive: 0.465 µM [inhibitor, full curve, poor fit]"},
      {"smiles": "CCN(CC)c1ccc(S(=O)(=O)N2CCOCC2)cc1NC(=O)c1cc(=O)c2ccccc2o1", "Potency": "inconclusive: 1.85 µM [inhibitor, partial curve, poor fit]"},
      {"smiles": "COc1ccc(S(=O)(=O)N2CCOCC2)cc1NC(=O)CC1CCCC1", "Potency": "inconclusive: 18.5 µM [inhibitor, single point]"},
      {"smiles": "CCCCNC(=O)Nc1cnn(CC)c1C(N)=O", "Potency": "inactive"},
      {"smiles": "CCOc1ccc(N2CC(C(=O)Nc3ccccc3N3CCOCC3)CC2=O)cc1", "note": "(centres undefined)", "Potency": "inactive"},
      {"smiles": "COc1cc(CN2CCN(Cc3cn(C)c4ccccc34)CC2CCO)cc(OC)c1", "note": "(centres undefined)", "Potency": "inconclusive: 11.7 µM [inhibitor, single point]"},
      {"smiles": "CCCCc1ccc(NC(=S)NCc2cccs2)cc1", "Potency": "inactive"},
      {"smiles": "CCCn1c(NC(=O)C2CCN(C(=O)c3ccc(F)cc3)CC2)nc2ccccc21", "Potency": "inconclusive: 18.5 µM [inhibitor, single point]"},
      {"smiles": "CN(CCC#N)C(=O)COC(=O)/C=C/c1cccs1", "Potency": "inactive"},
      {"smiles": "N#CCN(N=Nc1ccccc1)c1ccccc1", "Potency": "inactive"},
      {"smiles": "O=C(COc1ccccc1)Nc1ccc(S(=O)(=O)N2CCCC2)cc1", "Potency": "inconclusive: 8.28 µM [inhibitor, partial curve]"},
      {"smiles": "COc1ccccc1Nc1nc2c(s1)CCC2", "Potency": "inconclusive: 1.04 µM [inhibitor, partial curve, poor fit]"},
      {"smiles": "CCS(=O)(=O)N1CCCC(C(=O)NC2CCCCC2C)C1", "note": "(centres undefined)", "Potency": "inconclusive: 9.28 µM [inhibitor, partial curve]"},
      {"smiles": "C/C=C(/C)C(=O)O[C@@H]1c2c(ccc3ccc(=O)oc23)O[C@@H]1C(C)(C)OC(C)=O", "Potency": "active: 5.86 µM"},
      {"smiles": "O=C(NC1CC1)c1cccc(Br)c1", "Potency": "inactive"},
      {"smiles": "O=C(Nc1ccccc1)Nc1ccc2ncoc2c1", "Potency": "inactive"},
      {"smiles": "O=C(Nc1ccccc1)C1CCCN1C(=O)NCc1ccccc1", "note": "(centres undefined)", "Potency": "inactive"},
      {"smiles": "CCCc1cc(=O)[nH]c(SCC(=O)Nc2cccc(S(=O)(=O)N3CCCCC3)c2)n1", "Potency": "inconclusive: 18.5 µM [inhibitor, single point]"},
      {"smiles": "Cc1ccc(S(=O)(=O)NCC2CCC(C(=O)NC3CCCCC3)CC2)cc1", "note": "(centres undefined)", "Potency": "inconclusive: 1.47 µM [inhibitor, full curve]"},
      {"smiles": "Cc1ccc(C(=O)NCC(=O)OC(C)C(=O)Nc2ccc(N(C)C)cc2)s1", "note": "(centres undefined)", "Potency": "inactive"},
      {"smiles": "CC(=O)N1CCc2c(sc3c2c(=O)n(Cc2ccccc2)c(=O)n3CC(=O)NCC2CCCO2)C1", "note": "(centres undefined)", "Potency": "inactive"},
      {"smiles": "COc1ccccc1CC(=O)O/N=C(\\N)Cc1cccc2ccccc12", "Potency": "inconclusive: 14.7 µM [inhibitor, single point]"},
      {"smiles": "Cc1ccccc1NC(=O)CSc1nnc(-c2ccco2)c(-c2ccco2)n1", "Potency": "inactive"},
      {"smiles": "Cc1cccc(N(C(=O)c2ccc(CN3CCOCC3)o2)C(C(=O)NC(C)(C)C)c2ccc(F)cc2)c1", "note": "(centres undefined)", "Potency": "inconclusive: 11.7 µM [inhibitor, partial curve, poor fit]"},
      {"smiles": "O=C(c1cn(-c2ccccc2)nc1-c1ccc(Cl)cc1)N1CCOCC1", "Potency": "inactive"},
      {"smiles": "COc1ccccc1C(=O)NCCNc1ccc([N+](=O)[O-])cc1Cl", "Potency": "inconclusive: 18.5 µM [inhibitor, partial curve, poor fit]"},
      {"smiles": "Cc1ccc(-c2nc(CS(=O)CC(=O)NCCCN3CCN(Cc4ccccc4)CC3)c(C)o2)cc1", "note": "(centres undefined)", "Potency": "active: 6.57 µM"},
      {"smiles": "CCC(=O)c1ccc(N2CCN(C(=O)c3ccc(Br)cc3)CC2)c(F)c1", "Potency": "inactive"},
      {"smiles": "CCOC(=O)c1c(Cc2cccc(Cl)c2)c[nH]c1C", "Potency": "inconclusive: 18.5 µM [inhibitor, single point]"},
      {"smiles": "O=C(N/N=C/C=C\\c1ccccc1[N+](=O)[O-])c1cc(-c2ccc3ccccc3c2)n[nH]1", "Potency": "inactive"},
      {"smiles": "Cn1c(=O)c2cc(S(=O)(=O)NC(C(=O)N3CCCCCC3)c3ccccc3)ccc2n(C)c1=O", "note": "(centres undefined)", "Potency": "active: 10.4 µM"},
      {"smiles": "O=C(NCCN1CCCCCC1)c1ccc(N2CCCC2=O)cc1", "Potency": "inactive"},
      {"smiles": "COc1ccc([C@H]2CC(=O)C=C(c3ccc(C(=O)O)cc3)C2)cc1OC", "Potency": "inconclusive: 16.5 µM [inhibitor, single point]"},
      {"smiles": "COc1ccccc1NC(=O)C1CCN(S(=O)(=O)c2ccc3c(c2)NC(=O)C(C)S3)CC1", "note": "(centres undefined)", "Potency": "inconclusive: 13.1 µM [inhibitor, single point]"},
      {"smiles": "CCN(CC(=O)Nc1ccc(NC(C)=O)cc1)Cc1c(O)ccc2cc(Br)ccc12", "Potency": "inactive"},
      {"smiles": "CC(=O)Nc1ccc(NC(=O)c2cccc3ccccc23)cc1", "Potency": "inconclusive: 18.5 µM [inhibitor, single point]"},
      {"smiles": "COc1ccc(N/C=C2\\CCc3ccccc3C2=O)cc1", "Potency": "inactive"},
      {"smiles": "NS(=O)(=O)c1ccc(CCNc2nc(C(F)(F)F)nc3ccccc23)cc1", "Potency": "inactive"},
      {"smiles": "COCCCN1CCN(C2Cc3ccccc3Sc3ccc(Cl)cc32)CC1", "note": "(centres undefined)", "Potency": "inconclusive: 18.5 µM [inhibitor, single point]"},
      {"smiles": "O=C(CCS(=O)(=O)c1ccc(Br)cc1)N1CCN(c2ccc(Cl)cc2)CC1", "Potency": "inconclusive: 2.08 µM [inhibitor, partial curve, poor fit]"},
      {"smiles": "CC1CCCN(CCCOc2ccc(Cl)cc2Br)C1", "note": "(centres undefined)", "Potency": "inactive"},
      {"smiles": "COc1ccccc1N1CCN(S(=O)(=O)c2ccc(-c3cnc(C4CC4)o3)cc2)CC1", "Potency": "inconclusive: 11.7 µM [inhibitor, partial curve]"},
      {"smiles": "CCOCCCNC(=O)C1(O)c2ccccc2NC(=O)N1c1ccc(Cl)cc1", "note": "(centres undefined)", "Potency": "inconclusive: 13.1 µM [inhibitor, single point]"},
      {"smiles": "COC(=O)c1ccc(C2c3[nH]c4ccccc4c3C[C@H]3C(=O)N(C4CC4)CC(=O)N23)cc1", "note": "(some centres undefined)", "Potency": "inconclusive: 10.4 µM [inhibitor, single point]"},
      {"smiles": "COc1ccc(CCn2nnnc2C(c2ccccc2)N2CCN(C)CC2)cc1OC", "note": "(centres undefined)", "Potency": "inconclusive: 18.5 µM [inhibitor, single point]"},
      {"smiles": "CCC(c1nnnn1CCOC)N1CCN(C(=O)c2ccco2)CC1", "note": "(centres undefined)", "Potency": "inconclusive: 10.4 µM [inhibitor, single point]"},
      {"smiles": "O=C(Nc1ccc(F)c([N+](=O)[O-])c1)c1cccs1", "Potency": "inconclusive: 18.5 µM [inhibitor, single point]"},
      {"smiles": "C[C@@H](CN=[N+]=[N-])CN1CC[C@H](NC(=O)OCc2ccccc2)CCC1=O", "Potency": "inconclusive: 3.7 µM [inhibitor, single point]"},
      {"smiles": "CC(C)OC(=O)C[N+](C)(C)CCN1C(=O)C2C(c3ccccc3)C=CC(c3ccccc3)C2C1=O", "note": "(centres undefined)", "Potency": "inconclusive: 10.4 µM [inhibitor, partial curve, poor fit]"},
      {"smiles": "COc1ccc(C(=O)C[n+]2ccc3c(c2)nc(-c2ccc(OC)cc2OC)n3C)cc1", "Potency": "active: 4.15 µM"},
      {"smiles": "CCN(CC)S(=O)(=O)c1ccc(F)cc1", "Potency": "inconclusive: 13.1 µM [inhibitor, single point]"},
      {"smiles": "CSc1c(CC(=O)NCCO)n(C)c2ccccc12", "Potency": "inconclusive: 0.522 µM [inhibitor, full curve, poor fit]"},
      {"smiles": "CCOc1ccc(NC(=O)CC2C(=O)N(c3cccc(OC)c3)C(=O)N2C(C)C)cc1", "note": "(centres undefined)", "Potency": "inactive"},
      {"smiles": "COc1ccc(CN2CCN(Cc3cc4ccccc4o3)CC2CCO)c(F)c1", "note": "(centres undefined)", "Potency": "inconclusive: 18.5 µM [inhibitor, single point]"},
      {"smiles": "CCN(C(=O)COC(=O)CNS(=O)(=O)c1ccc(SC)c([N+](=O)[O-])c1)C1CCCCC1", "Potency": "inactive"},
      {"smiles": "O=C(CC1C(=O)N(c2ccccc2)C(=O)N1C1CCCCC1)Nc1ccccc1", "note": "(centres undefined)", "Potency": "inactive"},
      {"smiles": "O=C(N/N=C/c1ccc(N2CCOCC2)cc1)c1cccs1", "Potency": "inactive"},
      {"smiles": "COc1ccc(CNC(=O)CN2c3ccccc3S(=O)(=O)c3ccccc32)cc1", "Potency": "inactive"},
      {"smiles": "Cc1cc(Cl)ccc1OCC(=O)OCC(=O)N1CCC(C(N)=O)CC1", "Potency": "inactive"},
      {"smiles": "CCN1CCN(c2ncnc3scc(-c4ccc(C)cc4)c23)CC1", "Potency": "inconclusive: 13.1 µM [inhibitor, single point]"},
      {"smiles": "COCc1cccc(C(=O)NC(c2ccccc2)c2ccccc2)c1", "Potency": "inconclusive: 14.7 µM [inhibitor, partial curve, poor fit]"},
      {"smiles": "COc1ccc(C[C@H]2CN3C(=NC[C@@H]3Cc3ccccc3)N2C[C@H](C)NC(=O)CCC2CCCCC2)cc1", "Potency": "active: 2.62 µM"},
      {"smiles": "Cc1cccc(C(=O)N/N=C/c2cc(Br)c(Br)o2)c1", "Potency": "inconclusive: 13.1 µM [inhibitor, single point]"},
      {"smiles": "COc1ccc(CCN(C)C(=O)c2ccc(S(=O)(=O)Nc3ccccc3C)cc2)cc1OC", "Potency": "inconclusive: 18.5 µM [inhibitor, single point]"},
      {"smiles": "Cc1ccc(S(=O)(=O)c2nc(S(=O)(=O)c3ccc(C)cc3)c(NCc3ccco3)s2)cc1", "Potency": "active: 13.1 µM"},
      {"smiles": "CC1CCCN(Cc2c(O)ccc3c4c(c(=O)oc23)CCCC4)C1", "note": "(centres undefined)", "Potency": "active: 1.47 µM"},
      {"smiles": "C(=N\\Nc1ccccn1)/c1ccc(N2CCOCC2)cc1", "Potency": "inactive"},
      {"smiles": "Cc1ccc(S(=O)(=O)N2CCC(C(=O)N[C@@H](C)C(=O)NCc3ccco3)CC2)cc1", "Potency": "inactive"},
      {"smiles": "COc1ccc(Sc2nnc(-c3ccccc3)cc2C#N)cc1", "Potency": "inconclusive: 1.47 µM [inhibitor, full curve]"}
    ]}
  ]
}
